In the supplement of paper PMC12823440, “Inhibitors supercharge kinase turnover through native proteolytic circuits” (Nature, 2025):
The other results are listed elsewhere or left out. Hit calls seldom repeat between salt and free forms of one compound.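 In K562 cells expressing nanoluciferase-fused kinases, luminescence was recorded at 4 h intervals between 2 and 18 h, normalized as percent of control with DMSO at 100% and a positive control at 0%. A significant (2 sigma) signal drop marks a time point as decreased. The authors' rule for a hit is not shown and takes in more than the number of time points.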

Sequences of proteins named here, by UniProt entry; tags and fusion partners are left off. A change or cut given only in a name is not applied to a line headed by its entry.
UniProt Q12851: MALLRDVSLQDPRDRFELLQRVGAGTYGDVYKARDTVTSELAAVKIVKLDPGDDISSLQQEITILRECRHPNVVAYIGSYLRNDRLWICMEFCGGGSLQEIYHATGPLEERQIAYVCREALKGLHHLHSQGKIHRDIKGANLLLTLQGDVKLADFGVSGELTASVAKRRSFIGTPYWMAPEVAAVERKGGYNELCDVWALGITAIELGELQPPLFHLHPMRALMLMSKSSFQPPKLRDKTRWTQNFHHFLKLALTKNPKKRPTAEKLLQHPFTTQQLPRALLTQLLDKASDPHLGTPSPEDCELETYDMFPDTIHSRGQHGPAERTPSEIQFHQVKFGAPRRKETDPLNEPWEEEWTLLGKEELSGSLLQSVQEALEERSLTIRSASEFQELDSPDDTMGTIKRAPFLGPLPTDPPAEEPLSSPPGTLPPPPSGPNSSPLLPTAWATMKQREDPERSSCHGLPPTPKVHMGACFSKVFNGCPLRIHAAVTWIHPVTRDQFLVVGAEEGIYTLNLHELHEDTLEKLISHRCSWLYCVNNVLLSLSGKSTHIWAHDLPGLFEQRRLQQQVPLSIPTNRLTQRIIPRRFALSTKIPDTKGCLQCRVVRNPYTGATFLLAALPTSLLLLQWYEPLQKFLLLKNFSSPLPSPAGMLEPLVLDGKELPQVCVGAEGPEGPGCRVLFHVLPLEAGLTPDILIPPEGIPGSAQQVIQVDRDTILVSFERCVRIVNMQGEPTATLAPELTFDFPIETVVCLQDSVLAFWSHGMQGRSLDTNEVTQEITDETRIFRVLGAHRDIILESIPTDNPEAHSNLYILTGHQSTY
UniProt P23458: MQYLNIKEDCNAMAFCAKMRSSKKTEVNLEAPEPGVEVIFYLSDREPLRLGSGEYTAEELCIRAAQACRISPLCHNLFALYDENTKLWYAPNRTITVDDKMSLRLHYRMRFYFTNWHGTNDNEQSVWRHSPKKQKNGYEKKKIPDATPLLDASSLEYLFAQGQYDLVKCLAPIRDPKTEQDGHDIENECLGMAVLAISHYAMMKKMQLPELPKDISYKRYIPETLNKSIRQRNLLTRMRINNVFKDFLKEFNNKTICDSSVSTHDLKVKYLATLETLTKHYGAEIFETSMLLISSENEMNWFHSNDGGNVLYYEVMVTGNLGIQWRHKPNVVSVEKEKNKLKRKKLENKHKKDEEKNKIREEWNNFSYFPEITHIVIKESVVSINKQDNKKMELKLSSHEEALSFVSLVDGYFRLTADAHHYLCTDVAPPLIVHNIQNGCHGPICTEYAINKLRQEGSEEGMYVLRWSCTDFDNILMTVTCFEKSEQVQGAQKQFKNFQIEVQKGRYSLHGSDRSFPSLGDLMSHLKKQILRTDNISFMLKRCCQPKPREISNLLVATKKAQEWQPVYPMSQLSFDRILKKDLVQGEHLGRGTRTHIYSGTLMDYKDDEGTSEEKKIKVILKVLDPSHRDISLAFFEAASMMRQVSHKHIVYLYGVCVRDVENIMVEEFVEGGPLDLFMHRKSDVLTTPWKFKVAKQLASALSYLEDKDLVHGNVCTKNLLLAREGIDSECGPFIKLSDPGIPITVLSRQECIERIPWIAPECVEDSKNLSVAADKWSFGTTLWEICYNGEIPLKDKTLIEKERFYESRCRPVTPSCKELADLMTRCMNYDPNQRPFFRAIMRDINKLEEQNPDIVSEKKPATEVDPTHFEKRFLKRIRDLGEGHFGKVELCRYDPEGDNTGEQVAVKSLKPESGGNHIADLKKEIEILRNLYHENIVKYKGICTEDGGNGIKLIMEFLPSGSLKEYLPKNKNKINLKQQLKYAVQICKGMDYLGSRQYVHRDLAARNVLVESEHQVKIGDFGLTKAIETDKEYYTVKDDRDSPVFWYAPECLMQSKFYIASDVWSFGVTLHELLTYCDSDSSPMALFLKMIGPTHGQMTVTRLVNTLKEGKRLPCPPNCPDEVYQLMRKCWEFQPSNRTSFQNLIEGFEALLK
UniProt P31152, whole entry: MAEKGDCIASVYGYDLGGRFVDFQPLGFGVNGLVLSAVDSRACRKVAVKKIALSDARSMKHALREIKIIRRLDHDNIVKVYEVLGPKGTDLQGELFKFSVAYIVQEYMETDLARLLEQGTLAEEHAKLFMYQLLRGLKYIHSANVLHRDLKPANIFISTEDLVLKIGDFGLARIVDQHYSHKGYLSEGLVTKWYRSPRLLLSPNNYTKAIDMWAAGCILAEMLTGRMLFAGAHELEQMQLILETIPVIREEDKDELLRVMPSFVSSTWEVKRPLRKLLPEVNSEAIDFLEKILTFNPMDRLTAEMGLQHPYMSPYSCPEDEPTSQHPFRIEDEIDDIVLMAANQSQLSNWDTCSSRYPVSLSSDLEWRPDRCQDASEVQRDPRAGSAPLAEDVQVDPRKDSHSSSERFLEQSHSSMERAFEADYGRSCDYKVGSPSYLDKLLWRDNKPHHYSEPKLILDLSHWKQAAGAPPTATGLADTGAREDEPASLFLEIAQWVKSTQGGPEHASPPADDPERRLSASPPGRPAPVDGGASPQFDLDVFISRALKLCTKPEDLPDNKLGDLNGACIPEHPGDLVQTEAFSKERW
UniProt P28482, whole entry: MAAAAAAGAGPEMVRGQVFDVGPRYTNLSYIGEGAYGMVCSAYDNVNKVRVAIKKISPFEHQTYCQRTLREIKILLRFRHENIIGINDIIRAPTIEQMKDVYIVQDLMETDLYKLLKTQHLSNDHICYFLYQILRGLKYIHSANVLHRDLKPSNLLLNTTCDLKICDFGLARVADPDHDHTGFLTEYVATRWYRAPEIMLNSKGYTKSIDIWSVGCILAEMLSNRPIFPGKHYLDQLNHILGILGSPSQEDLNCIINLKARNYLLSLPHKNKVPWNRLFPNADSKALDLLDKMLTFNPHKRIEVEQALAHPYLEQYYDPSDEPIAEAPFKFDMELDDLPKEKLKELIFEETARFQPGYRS
UniProt Q92630: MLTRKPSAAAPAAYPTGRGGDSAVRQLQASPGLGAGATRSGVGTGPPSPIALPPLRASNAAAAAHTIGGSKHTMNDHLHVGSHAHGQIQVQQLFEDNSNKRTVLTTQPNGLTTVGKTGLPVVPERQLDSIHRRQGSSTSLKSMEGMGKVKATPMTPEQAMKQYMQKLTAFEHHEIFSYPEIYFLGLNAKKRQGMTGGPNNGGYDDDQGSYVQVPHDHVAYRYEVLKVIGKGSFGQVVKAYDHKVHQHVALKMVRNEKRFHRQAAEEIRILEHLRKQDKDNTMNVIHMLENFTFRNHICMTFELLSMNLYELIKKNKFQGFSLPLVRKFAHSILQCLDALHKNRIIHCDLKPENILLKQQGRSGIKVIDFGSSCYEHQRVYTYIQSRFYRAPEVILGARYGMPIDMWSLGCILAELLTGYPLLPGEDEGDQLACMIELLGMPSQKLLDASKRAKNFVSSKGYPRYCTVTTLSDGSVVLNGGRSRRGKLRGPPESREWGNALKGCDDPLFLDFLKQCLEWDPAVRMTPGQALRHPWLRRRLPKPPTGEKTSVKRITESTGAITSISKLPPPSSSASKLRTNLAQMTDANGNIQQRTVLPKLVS
UniProt Q9BUB5: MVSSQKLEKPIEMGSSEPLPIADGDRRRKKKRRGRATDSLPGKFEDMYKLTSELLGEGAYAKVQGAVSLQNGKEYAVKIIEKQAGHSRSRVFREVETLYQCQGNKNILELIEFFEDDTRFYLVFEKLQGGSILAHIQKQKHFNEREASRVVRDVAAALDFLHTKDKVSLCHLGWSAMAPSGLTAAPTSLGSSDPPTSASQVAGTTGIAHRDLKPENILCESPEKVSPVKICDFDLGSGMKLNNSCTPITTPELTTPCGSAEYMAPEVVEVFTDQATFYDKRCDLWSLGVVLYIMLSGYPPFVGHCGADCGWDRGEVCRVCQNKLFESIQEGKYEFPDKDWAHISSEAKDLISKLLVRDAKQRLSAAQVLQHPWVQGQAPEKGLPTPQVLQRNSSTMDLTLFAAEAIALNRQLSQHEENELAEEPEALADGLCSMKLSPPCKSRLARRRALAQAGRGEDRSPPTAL
UniProt Q13555: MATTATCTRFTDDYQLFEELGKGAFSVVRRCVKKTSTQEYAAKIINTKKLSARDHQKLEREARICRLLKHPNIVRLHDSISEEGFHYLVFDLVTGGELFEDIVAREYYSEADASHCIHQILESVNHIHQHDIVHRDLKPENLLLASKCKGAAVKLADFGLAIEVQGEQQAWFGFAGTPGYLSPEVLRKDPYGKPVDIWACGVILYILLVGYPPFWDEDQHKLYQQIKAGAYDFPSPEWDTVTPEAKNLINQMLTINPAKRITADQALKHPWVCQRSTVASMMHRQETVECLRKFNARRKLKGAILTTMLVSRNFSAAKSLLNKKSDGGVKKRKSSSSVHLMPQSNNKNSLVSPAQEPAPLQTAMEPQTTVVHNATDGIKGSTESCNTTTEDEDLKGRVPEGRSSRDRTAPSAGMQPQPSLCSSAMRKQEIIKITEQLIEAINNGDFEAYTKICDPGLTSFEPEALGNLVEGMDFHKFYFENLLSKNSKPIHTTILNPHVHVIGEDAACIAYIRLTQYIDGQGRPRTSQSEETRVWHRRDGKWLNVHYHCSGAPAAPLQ
UniProt Q9Y6E0: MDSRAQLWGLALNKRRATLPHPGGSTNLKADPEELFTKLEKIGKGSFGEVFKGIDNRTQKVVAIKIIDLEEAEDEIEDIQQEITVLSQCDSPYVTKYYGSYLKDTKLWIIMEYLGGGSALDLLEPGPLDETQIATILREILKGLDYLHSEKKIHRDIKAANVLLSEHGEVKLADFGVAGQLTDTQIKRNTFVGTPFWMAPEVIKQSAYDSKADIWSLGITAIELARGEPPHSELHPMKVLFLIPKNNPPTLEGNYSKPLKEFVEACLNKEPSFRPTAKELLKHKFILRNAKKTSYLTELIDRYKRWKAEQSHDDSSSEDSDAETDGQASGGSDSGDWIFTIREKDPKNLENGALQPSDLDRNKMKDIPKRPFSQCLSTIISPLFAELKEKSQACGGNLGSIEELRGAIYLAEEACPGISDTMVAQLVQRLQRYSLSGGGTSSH
UniProt Q15418, whole entry: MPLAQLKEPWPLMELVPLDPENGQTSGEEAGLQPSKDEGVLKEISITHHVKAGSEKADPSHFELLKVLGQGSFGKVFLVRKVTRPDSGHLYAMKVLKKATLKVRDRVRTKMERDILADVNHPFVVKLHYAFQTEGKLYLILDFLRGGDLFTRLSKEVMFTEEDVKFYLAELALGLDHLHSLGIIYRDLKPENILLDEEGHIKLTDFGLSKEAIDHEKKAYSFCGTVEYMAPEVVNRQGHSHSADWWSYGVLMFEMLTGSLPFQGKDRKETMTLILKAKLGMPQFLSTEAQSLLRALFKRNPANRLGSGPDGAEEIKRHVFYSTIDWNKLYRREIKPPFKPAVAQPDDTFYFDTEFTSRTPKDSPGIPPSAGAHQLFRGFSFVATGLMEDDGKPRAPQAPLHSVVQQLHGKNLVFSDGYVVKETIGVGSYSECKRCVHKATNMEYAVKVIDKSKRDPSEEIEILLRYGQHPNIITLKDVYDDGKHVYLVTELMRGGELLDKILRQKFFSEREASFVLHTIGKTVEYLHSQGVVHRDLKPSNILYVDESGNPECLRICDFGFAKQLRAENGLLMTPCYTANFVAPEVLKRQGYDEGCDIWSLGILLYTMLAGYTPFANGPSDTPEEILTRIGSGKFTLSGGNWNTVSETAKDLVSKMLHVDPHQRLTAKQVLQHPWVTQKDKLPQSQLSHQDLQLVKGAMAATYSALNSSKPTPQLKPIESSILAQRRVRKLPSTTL
UniProt P21802, whole entry, looked up: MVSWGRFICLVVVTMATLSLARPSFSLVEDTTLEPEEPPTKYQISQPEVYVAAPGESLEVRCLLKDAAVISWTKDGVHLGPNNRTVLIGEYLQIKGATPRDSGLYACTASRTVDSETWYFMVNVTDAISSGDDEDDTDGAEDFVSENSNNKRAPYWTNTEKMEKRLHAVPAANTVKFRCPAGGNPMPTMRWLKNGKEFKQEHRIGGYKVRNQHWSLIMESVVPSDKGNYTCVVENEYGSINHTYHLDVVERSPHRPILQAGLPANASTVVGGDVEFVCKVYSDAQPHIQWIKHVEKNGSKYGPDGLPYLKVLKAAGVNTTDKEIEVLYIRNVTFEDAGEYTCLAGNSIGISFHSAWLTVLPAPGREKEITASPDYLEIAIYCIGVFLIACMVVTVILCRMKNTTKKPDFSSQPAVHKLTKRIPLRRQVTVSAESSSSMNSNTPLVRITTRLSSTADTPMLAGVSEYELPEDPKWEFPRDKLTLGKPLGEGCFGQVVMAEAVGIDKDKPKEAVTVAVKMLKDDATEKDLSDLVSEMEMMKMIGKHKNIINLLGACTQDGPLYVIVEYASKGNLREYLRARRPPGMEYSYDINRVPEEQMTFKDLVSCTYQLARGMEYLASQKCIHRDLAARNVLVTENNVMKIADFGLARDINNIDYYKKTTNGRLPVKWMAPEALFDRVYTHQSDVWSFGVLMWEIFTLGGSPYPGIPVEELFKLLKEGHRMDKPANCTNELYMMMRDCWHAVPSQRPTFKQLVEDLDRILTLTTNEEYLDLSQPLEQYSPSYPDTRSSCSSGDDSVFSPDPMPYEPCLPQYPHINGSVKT

Legend:
Test in all cases: number of time points (of 5) at which kinase-Nluc abundance scored as decreased, DMSO-normalised (count); higher = more persistent destabilization
KN-93 (phosphate) = compound: COc1ccc(S(=O)(=O)N(CCO)c2ccccc2CN(C)C/C=C/c2ccc(Cl)cc2)cc1 [KN-93 (phosphate)]; conditions: 2.5 µM; K562; 2-18 h
KN-92 (hydrochloride) = compound: COc1ccc(S(=O)(=O)Nc2ccccc2CN(C)C/C=C/c2ccc(Cl)cc2)cc1 [KN-92 (hydrochloride)]; conditions: 2.5 µM; K562; 2-18 h
KN-92 (phosphate) = compound: COc1ccc(S(=O)(=O)Nc2ccccc2CN(C)C/C=C/c2ccc(Cl)cc2)cc1 [KN-92 (phosphate)]; conditions: 2.5 µM; K562; 2-18 h
AX-024 hydrochloride = compound: COc1ccc2c(c1)C(c1ccc(F)cc1)=C(CN1CCCC1)CO2 [AX-024 hydrochloride]; conditions: 10 µM; K562; 2-18 h
[1] = compound: COc1ccc2c(c1)C(c1ccc(F)cc1)=C(CN1CCCC1)CO2; conditions: 10 µM; K562; 2-18 h
Ilaprazole (sodium) = compound: COc1ccnc(C[S+]([O-])c2nc3cc(-n4cccc4)ccc3[nH]2)c1C [Ilaprazole (sodium)]; conditions: 10 µM; K562; 2-18 h
Ilaprazole = compound: COc1ccnc(C[S+]([O-])c2nc3cc(-n4cccc4)ccc3[nH]2)c1C [Ilaprazole]; conditions: 10 µM; K562; 2-18 h
PLX5622 (hemifumarate) = compound: COc1ncc(F)cc1CNc1ccc(Cc2c[nH]c3ncc(C)cc23)c(F)n1 [PLX5622 (hemifumarate)]; conditions: 10 µM; K562; 2-18 h
[2] = compound: COc1ncc(F)cc1CNc1ccc(Cc2c[nH]c3ncc(C)cc23)c(F)n1; conditions: 10 µM; K562; 2-18 h
[3] = compound: CS(=O)(=O)N1CCN(Cc2cc3nc(-c4cccc5[nH]ncc45)nc(N4CCOCC4)c3s2)CC1 [Pictilisib (dimethanesulfonate)]; conditions: 10 µM; K562; 2-18 h
Pictilisib = compound: CS(=O)(=O)N1CCN(Cc2cc3nc(-c4cccc5[nH]ncc45)nc(N4CCOCC4)c3s2)CC1 [Pictilisib]; conditions: 10 µM; K562; 2-18 h
[4] = compound: C[C@@H](N)[C@H]1CC[C@H](C(=O)Nc2ccncc2)CC1; conditions: 10 µM; K562; 2-18 h
[5] = compound: C[C@@H](N)c1ccc(C(=O)Nc2ccnc3[nH]ccc23)cc1; conditions: 10 µM; K562; 2-18 h
[6] = compound: C[C@H](CCC(=O)NCCS(=O)(=O)O)[C@H]1CC[C@H]2[C@@H]3[C@@H](O)C[C@@H]4C[C@H](O)CC[C@]4(C)[C@H]3CC[C@]12C [Tauroursodeoxycholate (dihydrate)]; conditions: 10 µM; K562; 2-18 h
[7] = compound: C[C@H](CCC(=O)NCCS(=O)(=O)O)[C@H]1CC[C@H]2[C@@H]3[C@@H](O)C[C@@H]4C[C@H](O)CC[C@]4(C)[C@H]3CC[C@]12C [Tauroursodeoxycholate (sodium)]; conditions: 10 µM; K562; 2-18 h
[8] = compound: C[C@H](Nc1cc(-c2cnn(C)c2)cc(Nc2cnccn2)n1)c1ccc(F)cc1 [Ilginatinib hydrochloride]; conditions: 2.5 µM; K562; 2-18 h
Ilginatinib = compound: C[C@H](Nc1cc(-c2cnn(C)c2)cc(Nc2cnccn2)n1)c1ccc(F)cc1 [Ilginatinib]; conditions: 2.5 µM; K562; 2-18 h
[9] = compound: C[S+]([O-])c1ccc(-c2nc(-c3ccc(F)cc3)c(-c3ccncc3)[nH]2)cc1; conditions: 10 µM; K562; 2-18 h
Toceranib (phosphate) = compound: Cc1[nH]c(/C=C2\C(=O)Nc3ccc(F)cc32)c(C)c1C(=O)NCCN1CCCC1 [Toceranib (phosphate)]; conditions: 2 µM; K562; 2-18 h
Toceranib = compound: Cc1[nH]c(/C=C2\C(=O)Nc3ccc(F)cc32)c(C)c1C(=O)NCCN1CCCC1 [Toceranib]; conditions: 2 µM; K562; 2-18 h

Target	number of time points (KN-93 (phosphate))	number of time points (KN-92 (hydrochloride))	number of time points (KN-92 (phosphate))	number of time points (AX-024 hydrochloride)	number of time points [1]	number of time points (Ilaprazole (sodium))	number of time points (Ilaprazole)	number of time points (PLX5622 (hemifumarate))	number of time points [2]	number of time points [3]	number of time points (Pictilisib)	number of time points [4]	number of time points [5]	number of time points [6]	number of time points [7]	number of time points [8]	number of time points (Ilginatinib)	number of time points [9]	number of time points (Toceranib (phosphate))	number of time points (Toceranib)
CDK10 (UniProt Q15131)	0	0	0	0	0	0	0	0	0	0	0	0	0	0	0	0	1	0	0	0
MAP4K2 (UniProt Q12851)	0	0	0	0	0	0	0	0	0	0	0	0	0	0	0	0	0	0	0	0
JAK1 (UniProt P23458)	0	0	0	0	0	0	0	0	0	0	0	0	0	0	0	1	0	0	0	0
RIOK1 (UniProt Q9BRS2)	0	0	0	0	0	0	0	0	0	0	0	0	0	0	0	0	1	0	0	0
MAPK4 (UniProt P31152)	0	0	0	0	0	0	0	0	0	0	0	0	0	0	0	0	0	0	0	0
MAPK1 (UniProt P28482)	0	0	0	0	0	0	0	0	0	0	0	0	0	0	0	0	0	0	0	0
DYRK2 (UniProt Q92630)	0	0	0	0	0	0	0	0	0	0	0	0	0	0	0	5	3	0	0	0
ZAP70 (UniProt P43403)	0	0	0	0	0	0	0	0	0	0	0	0	0	0	0	0	0	0	0	0
MKNK1 (UniProt Q9BUB5)	0	0	0	0	0	0	0	0	0	0	0	0	0	0	0	0	2	0	0	0
CAMK2G (UniProt Q13555)	0	0	0	0	0	0	0	0	0	0	0	0	0	0	0	1	1	0	0	0
STK24 (UniProt Q9Y6E0)	0	0	0	0	0	0	0	0	0	0	0	0	0	0	0	0	0	0	0	0
RAF1_S257L (clone: RAF1_mut) (UniProt P04049)	0	0	0	0	0	0	0	0	0	0	0	0	0	0	0	4	3	0	0	0
RPS6KA1 (UniProt Q15418)	0	0	0	0	0	0	0	0	0	0	0	0	0	0	0	0	0	0	0	0
EPHA2 (UniProt P29317)	0	0	0	0	0	0	0	0	0	0	0	0	0	0	0	0	0	0	0	0
FGFR2 (UniProt P21802)	0	0	0	0	0	0	0	0	0	0	0	0	0	0	0	5	3	0	0	0

Some entries already given, limited to number of time points [6], number of time points (PLX5622 (hemifumarate)) and number of time points (Ilginatinib):
Target,number of time points [6],number of time points (PLX5622 (hemifumarate)),number of time points (Ilginatinib)
CDK10 (UniProt Q15131),0,0,1
MAPK1 (UniProt P28482),0,0,0
